{"source": "patent US8802713B2", "about": "“3-alkoxy-1-phenylpyrazole derivatives and pesticides” (Kumiai Chemical Industry Co., Ltd., priority 2007, dated 2014)", "note": "Some entries share one result that the patent states for a list of compounds. For at least one compound, name, drawing or mass did not settle the structure."}
{"test_system": "two-spotted spider mites", "test": "Miticidal test on two-spotted spider mites (seedling dip)", "assay_type": "in vivo, Tetranvchus urticae", "details": "500 ppm active ingredient, soybean seedlings with imago mites dipped, 25° C., 13 days", "procedure": "A wettable powder prepared in accordance with Formulation Example 2 was diluted with water to a concentration of an active ingredient of 500 ppm. Soybean seedlings which had been inoculated with imago two-spotted spider mites were dipped in the solution and dried in air. The treated soybean seedlings were placed in a thermostatic chamber at 25° C. for 13 days, and the number of live mites were assessed for calculation of the protective value by Equation 1. The test was carried out by one series system."}
{"smiles": "CCC(C)COc1cc(C)n(-c2cc(SCC(F)(F)F)c(C)cc2F)n1", "note": "(stereo not shown) [1-221]", "protective value": "≥ 90"}
{"smiles": "Cc1cc(F)c(-n2nc(OC(F)(F)C(F)OC(F)(F)C(F)(F)F)cc2C)cc1[S+]([O-])CC(F)(F)F", "note": "(stereo not shown) [1-318]", "protective value": "≥ 90"}
{"smiles": "CSCCOc1cc(C)n(-c2cc(SCC(F)(F)F)c(C)cc2F)n1", "note": "[1-241]", "protective value": "≥ 90"}
{"smiles": "Cc1cc(F)c(-n2nc(OCCCC(F)(F)C(F)(F)C(F)(F)C(F)(F)C(F)(F)C(F)(F)F)cc2C)cc1[S+]([O-])CC(F)(F)F", "note": "(stereo not shown) [1-310]", "protective value": "≥ 90"}
{"smiles": "Cc1cc(F)c(-n2ccc(OCc3cccnc3)n2)cc1SCC(F)(F)F", "note": "[1-1609]", "protective value": "≥ 90"}
{"smiles": "Cc1cc(F)c(-n2ccc(OC(F)(F)C(F)Cl)n2)cc1[S+]([O-])CC(F)(F)F", "note": "(stereo not shown) [1-1554]", "protective value": "≥ 90"}
{"smiles": "COCCCOc1cc(C)n(-c2cc([S+]([O-])CC(F)(F)F)c(C)cc2F)n1", "note": "(stereo not shown) [1-298]", "protective value": "≥ 90"}
{"smiles": "Cc1cc(F)c(-n2nc(OC(F)(F)C(F)OC(F)(F)C(F)(F)C(F)(F)F)c(Br)c2N)cc1SCC(F)(F)F", "note": "(stereo not shown) [1-1257]", "protective value": "≥ 90"}
{"smiles": "Cc1cc(F)c(-n2nc(OC(F)(F)C(F)OC(F)(F)C(F)(F)F)cc2NC=O)cc1SCC(F)(F)F", "note": "(stereo not shown) [1-1607]", "protective value": "≥ 90"}
{"smiles": "Cc1cc(F)c(-n2ccc(OCc3ccc(C(F)(F)F)cc3F)n2)cc1[S+]([O-])CC(F)(F)F", "note": "(stereo not shown) [1-1602]", "protective value": "≥ 90"}
{"smiles": "Cc1cc(F)c(-n2ccc(OC(F)(C(F)(F)F)C(F)(F)F)n2)cc1SCC(F)(F)F", "note": "[1-392]", "protective value": "≥ 90"}
{"smiles": "Cc1cc(F)c(-n2nc(OC(F)(F)C(F)OC(F)(F)C(F)(F)F)c(Cl)c2N)cc1[S+]([O-])CC(F)(F)F", "note": "(stereo not shown) [1-1516]", "protective value": "≥ 90"}
{"smiles": "Cc1cc(F)c(-n2nc(OC(F)(F)C(F)C(F)(F)F)cc2C#N)cc1[S+]([O-])CC(F)(F)F", "note": "(stereo not shown) [1-156]", "protective value": "≥ 90"}
{"smiles": "Cc1cc(F)c(-n2ccc(OC(F)(F)C(F)(F)C(F)(F)C(F)(F)C(F)(F)C(F)(F)F)n2)cc1SCC(F)(F)F", "note": "[1-400]", "protective value": "≥ 90"}
{"smiles": "Cc1cc(F)c(-n2nc(OC(C)C(F)(F)F)cc2C)cc1[S+]([O-])CC(F)(F)F", "note": "(stereo not shown) [1-274]", "protective value": "≥ 90"}
{"smiles": "CC(=O)Nc1cc(OCC(F)(F)C(F)F)nn1-c1cc([S+]([O-])CC(F)(F)F)c(C)cc1F", "note": "(stereo not shown) [1-248]", "protective value": "≥ 90"}
{"smiles": "Cc1cc(F)c(-n2nc(OC(C)C(F)(F)C(F)(F)F)cc2C)cc1[S+]([O-])CC(F)(F)F", "note": "(stereo not shown) [1-278]", "protective value": "≥ 90"}
{"smiles": "Cc1cc(F)c(-n2ccc(OC(F)(F)C(F)OC(F)(F)C(F)(F)F)n2)cc1[S+]([O-])CC(F)(F)F", "note": "(stereo not shown) [1-413]", "protective value": "≥ 90"}
{"smiles": "Cc1cc(F)c(-n2nc(OCc3ccc(OC(F)(F)F)cc3)cc2C)cc1SCC(F)(F)F", "note": "[1-1599, 1-{2-fluoro-4-methyl-5-(2,2,2-trifluoroethylthio)phenyl}-5-methyl-3-{(4-trifluoromethoxy)benzyloxy}pyrazole]", "protective value": "≥ 90"}
{"smiles": "Cc1cc(F)c(-n2cc(Br)c(OC(F)(F)C(F)OC(F)(F)C(F)(F)C(F)(F)F)n2)cc1[S+]([O-])CC(F)(F)F", "note": "(stereo not shown) [1-1197]", "protective value": "≥ 90"}
{"smiles": "Cc1cc(F)c(-n2cc(I)c(OC(F)(F)C(F)C(F)(F)F)n2)cc1SCC(F)(F)F", "note": "(stereo not shown) [1-1545]", "protective value": "≥ 90"}
{"smiles": "CC(=O)Nc1cc(OCCC(F)(C(F)(F)F)C(F)(F)F)nn1-c1cc(SCC(F)(F)F)c(C)cc1F", "note": "[1-1527]", "protective value": "≥ 90"}
{"smiles": "COc1ccc(COc2ccn(-c3cc(SCC(F)(F)F)c(C)cc3F)n2)cc1", "note": "[1-1603]", "protective value": "≥ 90"}
{"smiles": "Cc1cc(F)c(-n2nc(OCC3CCOC3)cc2C)cc1[S+]([O-])CC(F)(F)F", "note": "(stereo not shown) [1-232]", "protective value": "≥ 90"}
{"smiles": "Cc1cc(F)c(-n2nc(OC(F)(F)C(F)OC(F)(F)C(F)(F)C(F)(F)F)cc2Cl)cc1[S+]([O-])CC(F)(F)F", "note": "(stereo not shown) [1-893]", "protective value": "≥ 90"}
{"smiles": "Cc1cc(F)c(-n2nc(OC(F)(F)C(F)OC(F)(F)C(F)(F)C(F)(F)F)cc2N)cc1SCC(F)(F)F", "note": "(stereo not shown) [1-460]", "protective value": "≥ 90"}
{"smiles": "CNc1cc(OC(F)(F)C(F)OC(F)(F)F)nn1-c1cc([S+]([O-])CC(F)(F)F)c(C)cc1F", "note": "(stereo not shown) [1-288]", "protective value": "≥ 90"}
{"smiles": "Cc1cc(F)c(-n2nc(OCC3CCC3)cc2C)cc1[S+]([O-])CC(F)(F)F", "note": "(stereo not shown) [1-228]", "protective value": "≥ 90"}
